Measured values as given in PMC10163288.
The other results are listed elsewhere or left out.

B1: il10ra_site1_normal_mot_HHH_b2_00984_000000042_0001_1_20_H_._HHH_b1_07343_0001_0000600038_0000001_0 (protein)
chain: SSSSTEEFLRLLQEALRLAIRLRDPEALQEIWELIREYIREGDPRLEEELEELVEELRRRGSSSS
B2: il10ra_site1_normal_mot_HHH_b1_06816_000000239_0001_1_19_H_._HHH_b1_07754_0001_0000500010_0000001_1 (protein)
chain: SSSSSSDREEEAEELLEELKQIPDPDERFKLAREAIELAVEAGDPELARRISRLAAELSSSSSSS
B3: il10ra_site1_sap_17_mot_HHH_b1_02881_000000046_0001_1_20_H_._HHH_b2_00998_0001_0000100006_0000001_0_0001_af2pred_0001 (protein)
chain: SSSSEAQEIALEAAVEARRLLLRGNPEEARKVLEEAEEELRELNDPRAVLTIELLLRIIEESSSS
B4: il10ra_site1_sap_24_mot_HHH_b2_05548_000000224_0001_41_54_H_._HHH_b2_01208_0001_0000100017_0000001_0_0001 (protein)
chain: SSSSDEEEVEELIEEIERLLEEGDPEKAVELIRRLAELAHELNDPELARIVLELSRLVVDRSSSS
B5: il10ra_site1_sap_23_mot_HHH_b1_00566_000000151_0001_22_39_H_._HHH_b2_03844_0001_0000200011_0000002_0_0001 (protein)
chain: SSSSTELTERVYKLSEEALELEARGNPEEAEKVLEEAEEIAEEAGSRALLEVVRYFLEKLRSSSS
B6: il10ra_site1_normal_mot_65b8060e20531850bca9f2e11f97d954_0001_af2_000000137_0001_17_31_H_._HHH_b1_03310_0001_0000100015_0000002_0 (protein)
chain: SSSSDEEIHRVSRLFVRASRLLDEGNPEEAHKLLEEMEELAEEGNDERLKLSVRFLEALIKSSSS
B7: il10ra_site1_normal_mot_HHH_b2_03183_af2_000000055_0001_40_56_H_._HHH_b1_05465_0001_0000300021_0000001_0 (protein)
chain: SSSSDKEERELVRAAVRLAEQVSERVVRFLLLAAEKRAEELNDPELRELVEELREYLEELSSSSS
B8: il10ra_site1_normal_mot_HHH_b2_03438_af2_000000049_0001_18_34_H_._HHH_b2_01341_0001_0000400023_0000002_0 (protein)
chain: SSSSDVQEEVERLLEEAEEAQERGNPEEAYRLIREAAELAHERNDEELARLVQEVARRIVSSSSS
B9: il10ra_site1_normal_mot_HHH_b1_08477_000000091_0001_40_57_H_._HHH_b2_05490_af2_0001_0000100011_0000001_0 (protein)
chain: SSSSSEEERLKQSIRFAKRLIENGDPEAARRILRAAIDVARRLGDEELLEEAERVLEELDSSSSS
B10: il10ra_site1_normal_mot_HHH_b2_04680_000000215_0001_1_16_H_._HHH_b2_06226_0001_0000600061_0000001_0 (protein)
chain: SSSSSSEEKATREAYELIREAFHIEDEEKVRELLEEALELAEEANNFALIFAIRQALRELSSSSS
B11: il10ra_site1_normal_mot_HHH_b1_00999_000000080_0001_41_55_H_._HHH_b1_08189_0001_0000500019_0000001_0 (protein)
chain: SSSSSSREFSRLLQEAVRLAFKNSDEELLKALWRLAREWGEEGDEKYEEELRELIEEVGSSSSSS
B12: il10ra_site1_sap_20_mot_HHH_b1_03900_000000129_0001_1_16_H_._HHH_b2_04630_af2_0001_0000200009_0000001_0_0001 (protein)
chain: SSSSSDEDQELLELLHELIELLLRGDEEEAHKLAREILELAEELNDEKVFRMAEDLLKAASSSSS
B13: il10ra_site1_sap_19_mot_HHH_b2_07758_000000036_0001_41_55_H_._HHH_b2_04674_0001_0000100003_0000001_0_0001 (protein)
chain: SSSSSEQREALRRFIEAMVEWLEKTGDPEAERALRFLLVSARLLGDEEAEELAEEVLERLSSSSS
B14: il10ra_site1_sap_12_mot_HHH_b1_08466_000000162_0001_1_19_H_._HHH_b1_00329_0001_0000600026_0000001_0_0001 (protein)
chain: SSSSDEEEVKERVEELLEEAEKIEDKQEVARLFMEALRLAFRARDDELMEEIWRSFKELTSSSSS
B15: il10ra_site1_sap_25_mot_HHH_b2_04681_000000155_0001_43_57_H_._HHH_b2_03205_0001_0000200011_0000002_0_0001 (protein)
chain: SSSSNQYEEVERVLEEAMELYREGNPEEAERLLEEAEEELEKLNNWAALFAIRHLLRVVRNSSSS
B16: il10ra_site1_sap_17_mot_HHH_b1_01307_000000115_0001_1_18_H_._HHH_b1_07268_af2_0001_0000600052_0000001_0_0001 (protein)
chain: SSSSSDEEEREVEELLEEAKEIDDPEEAAEVLLRALRLALHLQDSELLRAVWRVVKELGSSSSSS
B17: il10ra_site1_sap_26_mot_HHH_b2_02736_000000092_0001_22_38_H_._HHH_b2_05977_0001_0000100003_0000001_0_0001_af2pred_0001 (protein)
chain: SSSSSTDESERIIELLREAVQIPDPEEAEEVLREAEELAERLGNELLRFIVEWLLKRLGSSSSSS
B18: il10ra_site1_normal_mot_HHH_b2_08144_af2_000000046_0001_38_52_H_._HHH_b2_02580_0001_0000200021_0000001_1_af2pred_0001 (protein)
chain: SSSSTEEDEEALRLLRELAELYSNGDEEEAEELAEEARRVAQEANNPLVELLIRFLLERASSSSS
B19: il10ra_site1_sap_25_mot_HHH_b2_00401_000000001_0001_40_54_H_._HHH_b2_05201_0001_0000100006_0000001_0_0001 (protein)
chain: SSSSSEEAEEILEEAEKLIEELLERGDPQRAFEVVEEAARRLLRLGDPEAIRRLIEAFVRLSSSS
B20: il10ra_site1_sap_23_mot_HHH_b1_03900_000000129_0001_1_16_H_._HHH_b1_02874_af2_0001_0000600030_0000002_0_0001_af2pred_0001 (protein)
chain: SSSSDEEAQRIAEEAEEEAEKLAEEGNPQEAAQVLAEASRRVAELGDPELALRLARLFAELSSSS
B21: il10ra_site1_normal_mot_HHH_b2_00622_af2_000000153_0001_40_57_H_._HHH_b1_02938_0001_0000100006_0000001_0 (protein)
chain: SSSSSVERAVRRLNHAAKQLLERGDPEVAERALRFAKALAESANNDELREEVEELLEEVRRSSSS
B22: il10ra_site1_sap_19_mot_HHH_b2_05984_000000071_0001_38_52_H_._HHH_b2_05373_0001_0000700029_0000001_0_0001 (protein)
chain: SSSSDEEEERLEELKKEIERLEEEGNPQEALEAIQEAVRLAFRLGDEETLQELWELVKKQESSSS
B23: il10ra_site1_normal_mot_HHH_b1_02997_000000220_0001_39_52_H_._HHH_b2_06530_af2_0001_0000100007_0000001_0 (protein)
chain: SSSDEELHELYELIREAAELLAEGNPEEAQEVVEEAERLAEKLGNVNLLFNARYLLRVIEHSSSS
B24: il10ra_site1_sap_14_mot_HHH_b2_07495_000000114_0001_42_55_H_._HHH_b2_02957_0001_0000200014_0000002_0_0001 (protein)
chain: SSSSSDEEAAERSVKFMLRAAKQLEDEEYVRLALRFARAIARDGNDPELERLVEKVEEELSSSSS
B25: il10ra_site1_sap_24_mot_HHH_b1_02665_000000293_0001_1_18_H_._HHH_b1_03004_0001_0000100002_0000001_0_0001_af2pred_0001 (protein)
chain: SSSSDEEEEAEELLEQAEEAAKRNDSKLLLKILRRVAELAAESRNPELAEIARKIAQLFGSSSSS
B26: il10ra_site1_sap_13_mot_HHH_b2_00092_000000181_0001_22_39_H_._HHH_b2_02377_0001_0000400027_0000001_0_0001 (protein)
chain: SSSSSDETEELYRLSKEAIELAAEGNPEEAKEVLEEAEKIAEEANNRVLLVNIRYLLRKLSSSSS
B27: il10ra_site1_sap_25_mot_HHH_b2_08004_000000101_0001_1_17_H_._HHH_b1_00239_af2_0001_0000100007_0000001_0_0001_af2pred_0001 (protein)
chain: SSSSSEEAQRVIELIREAFQLLHEGNPEEARELLEEARELAEEANNPLLRLQVELVLKQINSSSS
B28: il10ra_site1_normal_mot_HHH_b2_00479_000000091_0001_1_12_H_._HHH_b1_05715_0001_0000500051_0000001_0 (protein)
chain: SSSSDVADELYKLSREALELLANGNPEEAREVVEEAEELARENNNPVLLFSIEYLARQIESSSSS
B29: il10ra_site1_normal_mot_HHH_b1_04877_af2_000000063_0001_41_55_H_._HHH_b1_05082_0001_0000300014_0000001_0 (protein)
chain: SSSSSEEEEVEELLEEAERIPDPHEVAELLAEALRIAYELGDEELFRRIQEVAIKIQERLSSSSS
B30: il10ra_site1_sap_23_mot_HHH_b2_04186_af2_000000278_0001_1_19_H_._HHH_b1_06647_af2_0001_0000600036_0000002_0_0001 (protein)
chain: SSSSTKTHEVYKLSERALELRANGNPEEAREVLERAEELAEEANNYAALHAVRMILEQIESSSSS
B31: il10ra_site1_sap_19_mot_39ab2cb694c8b9c1dc7e65c0d672c93e_0001_000000036_0001_53_65_H_._HHH_b2_05437_0001_0000300034_0000001_0_0001_af2pred_0001 (protein)
chain: SSSSSDVEELLERAKELAERGNPEEAKEVLREALEAITHARDPELSYKAVRAYAFVNQLSSSSSS
B32: il10ra_site1_normal_mot_HHH_b2_05323_000000159_0001_1_18_H_._HHH_b1_07021_0001_0000100004_0000001_0 (protein)
chain: SSSSDEEEQRVLELVQEVFRLALRGNPEEAREVLEEAKELAERIGDERLLRVIESLEQALSSSSS
B33: il10ra_site1_normal_mot_HHH_b2_02337_000000026_0001_38_52_H_._HHH_b1_06600_0001_0000200019_0000001_0 (protein)
chain: SSSSSAEEEARELLEEAEELLRQGNPEEAIRLLQEASAFALRASDQELLREIWRLVQELRSSSSS
B34: il10ra_site1_normal_mot_HHH_b1_01821_000000158_0001_23_39_H_._HHH_b2_00259_0001_0000800036_0000001_0 (protein)
chain: SSSSSSSEEIEEEVRRLLEEAERVDQEEANRLLLEALQLAIEAQDAELLQEIWEVFRELSSSSSS
B35: il10ra_site1_sap_20_mot_HHH_b2_00335_000000038_0001_43_57_H_._HHH_b1_02783_0001_0000300035_0000001_0_0001 (protein)
chain: DEELVELARLALEGDPRAHMELIHLYALIHQGDPEAERELEEAIKLAEELGDEDVVIYLRNLLEQ
B36: il10ra_site1_sap_14_mot_HHH_b2_00984_000000042_0001_1_20_H_._HHH_b2_03909_0002_0000200009_0000001_0_0001_af2pred_dldesign_0_af2pred (protein)
chain: SREELLDILVRDLDIPEEVAKAILDQVTKQSGGDRRAILQRLLARAQLQGREDAVARLTALLERE
B37: il10ra_site1_normal_mot_HHH_b1_05357_000000034_0001_23_39_H_._HHH_b2_01604_af2_0001_0000400004_0000001_0 (protein)
chain: SSSSSSEIEEEVEELLERAKHIPDKEELSHVLIQAYAVANRGGNEELRELVREVAIRLVSSSSSS

Target: il10ra, Q13651
Assay: yeast display titration

Apparent Kd, inactive:
B1 no binding seen
B2 no binding seen
B3 no binding seen
B4 no binding seen
B5 no binding seen
B6 no binding seen
B7 no binding seen
B8 no binding seen
B9 no binding seen
B10 no binding seen
B11 no binding seen
B12 no binding seen
B13 no binding seen
B14 no binding seen
B15 no binding seen
B16 no binding seen
B17 no binding seen
B18 no binding seen
B19 no binding seen
B20 no binding seen
B21 no binding seen
B22 no binding seen
B23 no binding seen
B24 no binding seen
B25 no binding seen
B26 no binding seen
B27 no binding seen
B28 no binding seen
B29 no binding seen
B30 no binding seen
B31 no binding seen
B32 no binding seen
B33 no binding seen
B34 no binding seen
B35 no binding seen
B36 no binding seen
B37 no binding seen

Copied from above (3 entries):
Apparent Kd, inactive:
B17 no binding seen
B18 no binding seen
B19 no binding seen
